The target of assay [1] is rSlpA_(210-435) (Lactobacillus brevis ATCC 8287) (UniProt Q05044). Put plainly: precipitation after dialysis from GHCl (self-assembly test); affinity purified protein dissolved in 5 M GHCl at 1 mg/ml, dialysed against PBS for two hours at 4°C, centrifuged 16,000 x g 30 min, precipitate checked by SDS-PAGE; both purified.
Assay [2] has as its target rSlpA_(291-435) (Lactobacillus brevis ATCC 8287) (UniProt Q05044). Described as above.

This passage reports binding results from article PMC2571106 (BMC Microbiology, 2008).

Results are given in words; binding and its absence hold for the method and conditions named.

B1: rSlpA_(210-435) (domain or fragment, UniProt Q05044 240-465)
chain: VTATNDNSVKIVYRTTDGTQVGSNTWVTSTDGTKAGSKVSDKAADQTALEAYINANKPSGYTVTNPNAADATYGNTVYATVSQAATSKVALKVSGTPVTTALTTADANDKVAANDTTANGSSVAGSTVYAAGTKLAQLTTDLTGEKGQVVTLTAIDTDLEDATFTGTTTYYSDLGKAYHYTYTYNKDSAASSNASTQFGSNVTGTLTATLVMGKSTATANGTTWFN
Regarding B1, in assay [1], the binding entry is “no binding (tested: 1 mg/ml)”.

B2: rSlpA_(291-435) (domain or fragment, UniProt Q05044 321-465)
chain: SQAATSKVALKVSGTPVTTALTTADANDKVAANDTTANGSSVAGSTVYAAGTKLAQLTTDLTGEKGQVVTLTAIDTDLEDATFTGTTTYYSDLGKAYHYTYTYNKDSAASSNASTQFGSNVTGTLTATLVMGKSTATANGTTWFN
For B2, the binding result in assay [2] is listed as “no binding (tested: 1 mg/ml)”.
